Experimental data published in paper PMC13287468, “Newton’s cradle-like allosteric mechanism explains regulatory RsmE RNA binding”.

Target: T1, RsmE dimer (P64W, C-terminal His6) (UniProt P0DPC3)
T1 sequence (looked up): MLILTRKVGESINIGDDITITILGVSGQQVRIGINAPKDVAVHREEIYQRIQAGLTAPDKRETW
Test: ITC
Conditions: 30 mM NaCl, 50 mM potassium phosphate pH 7.2, ITC at 298 K (NaCl varied in Supp. Fig. 8), RNA titrated into 10 uM RsmE monomer, sequential two-site model, recombinant protein, residues 1-64, protein details: C-terminal 6xHis

GGGCCAUCAAGGACGAUGGUCC [SL2 RNA (RsmZ)]
binding result (increased NaCl, first-site affinity reduced proportionally more than second): binds more weakly | binding signal (Kd2/Kd1 ratio) (second site vs first site (10- to 30-fold reduced)): 20

GGGCUUCACGGAUGAAGCCC [hcnA SD RNA]
pKd (second site, SL2 RNA already bound at the first site): 6.52

GGAUCAAGGACGAUCC [4bpSL2 RNA]
binding result (first site, affinity substantially reduced vs SL2): binds more weakly | binding signal (Kd2/Kd1 ratio) (second site vs first site): 3

pKd: −log10 of the molar value. Construct, isoform or probe ends are uncertain for at least one entry. The comparison behind a weaker result is the experiment's own reference, which may not be listed here. Tags and fusion partners may be left off the protein sequences shown. Whether high values mean tight binding is not given here for every scale.
